Reference: patent publication EP1584686A1, “Progenitor cell preservation factors and related methods and products” (ImClone Systems Incorporated, priority 1999, dated 2001)
Results are given in words; binding and its absence hold for the method and conditions named. Some entries that bind do so weakly or less than the wild type.

Amino acid sequences for entries named in this document (tags omitted). Residues count along the entry.
UniProt P01012, residues 2-386: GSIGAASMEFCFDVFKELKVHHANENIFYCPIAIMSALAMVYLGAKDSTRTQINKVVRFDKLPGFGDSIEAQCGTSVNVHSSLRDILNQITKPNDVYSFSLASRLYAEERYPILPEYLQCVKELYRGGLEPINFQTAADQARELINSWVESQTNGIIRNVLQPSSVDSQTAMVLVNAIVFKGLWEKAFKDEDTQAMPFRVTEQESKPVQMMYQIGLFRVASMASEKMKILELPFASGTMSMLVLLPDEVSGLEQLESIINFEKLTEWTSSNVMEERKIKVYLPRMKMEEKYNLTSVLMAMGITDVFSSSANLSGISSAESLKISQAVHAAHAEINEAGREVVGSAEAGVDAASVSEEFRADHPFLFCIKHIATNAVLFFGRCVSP

Tests used:
[1] = biological target: Ovalbumin immobilised on Sepharose / gel affinity column (UniProt P01012); test: batch binding of tobacco leaf extract to ovalbumin-Sepharose, elution with 200 mM trehalose
[2] = biological target: Ovalbumin immobilised on Sepharose / gel affinity column (UniProt P01012); test: ovalbumin gel affinity column, elution with 200 mM trehalose

B1: Recombinant Pv-FRIL produced in transformed tobacco (pM-SpPv-FRIL) and purified from the leaves (protein)
chain: AQSLSFNFTKFDLDQKDLIFQGDATSTNNVLQLTKLDSGGNPVGASVGRVLFSAPFHLWENSMAVSSFETNLTIQISTPHPYYAADGFAFFLAPHDTVIPPNSWGKFLGLYSNVFRNSPTSENQSFGDVNTDSRVVAVEFDTFPNANIDPNYRHIGIDVNSIKSKETARWEWQNGKTATARISYNSASKKSTVTTFYPGMEVVALSHDVDLHAELPEWVRVGLSASTGEEKQKNTIISWSFTSSLKNNEVKEPKEDMYIANVVRSYTWINDVLSYISNK
- binding [1]: binds

B2: YamFRIL purified from Sphenostylis stenocarpa (yam bean) seeds (protein)
chain: AQSVSFTFTKFDSDQKDLMFQGHTISSSNVIQLTKLDSNGNPVSTSVGRVLYSAPLRLWESSTVVSTFETTFTFQISTPYTSPPGDGLAFFLAPYDTVIPPNSAGNLLGLFPNLNALRNSTTSKETTIDVNAASNNVVAVEFDTYPNDNIGDPRYKHIGIDVNSIRSKATVAWDWQNGKTATAHISYNSASKRLSVTTFYPGGKAVSLSHDVELTQVLPQWIRVGFSASTGLEK
- binding [2]: binds
